PubChem BioAssay AID1224830 – NIAID, 2016
Test: 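Host factors that control LPS-induced TNF expression in human macrophages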 (primary screen). Cells: human THP-1 monocytic leukaemia cells, TNF dual-luciferase reporter clone, PMA-differentiated to macrophage-like cells. Reagent: siRNA pool against human genes, 50 nM. Time to read-out: LPS for 4 h, given about 3 days after siRNA transfection. Conditions: bacterial LPS (TLR4 ligand), 10 ng/ml. Detection: 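Ratio of firefly to renilla light, scaled to the plate median and expressed as a robust z-score per replicate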. Direction: TNF reporter robust z-score: higher = stronger TNF reporter response to LPS. Rule for the call: 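a well is active when its z-score exceeds 2.8 or falls below -1.5; control wells carry no call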.
The deposit covers about 18,000 reagents; below is an unselected part. Of all reagents, about 2,900 (16%) are marked active. 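Calls are made per well; low scores hint the gene aids the LPS response, high scores that it dampens it.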 Unmarked entries are inactive. Repeated entries: four replicate wells of each siRNA pool.

| target | TNF reporter robust z-score |
| --- | --- |
| NXN | 0.89 |
| NXN | 1.68 |
| NXN | 0.92 |
| NXN | 1.53 |
| TECPR1 | -0.82 |
| TECPR1 | -0.36 |
| TECPR1 | -0.91 |
| TECPR1 | -0.17 |
| SYT14 | 0.62 |
| SYT14 | -0.59 |
| SYT14 | -0.18 |
| SYT14 | 0.49 |
| TPP2 | 0.02 |
| TPP2 | 0.3 |
| TPP2 | -0.97 |
| TPP2 | -0.7 |
| ABHD12 | -0.19 |
| ABHD12 | -0.63 |
| ABHD12 | -0.6 |
| ABHD12 | 1.17 |
| ATP1B2 | -1.26 |
| ATP1B2 | -1.01 |
| ATP1B2 | -1.27 |
| ATP1B2 | -1.04 |
| NOP56 | 1.44 |
| NOP56 | 1.07 |
| NOP56 | 0.92 |
| NOP56 | 1.59 |
| RP1L1 | -0.9 |
| RP1L1 | 0.01 |
| RP1L1 | 0.11 |
| RP1L1 | 0.05 |
| TMEM168 | 0.73 |
| TMEM168 | 0.1 |
| TMEM168 | -0.06 |
| TMEM168 | 0.89 |
| DNAAF10 | -0.29 |
| DNAAF10 | -1.04 |
| DNAAF10 | -0.67 |
| DNAAF10 | -0.25 |
| ZNF215 | 1.38 |
| ZNF215 | 1.64 |
| ZNF215 | 1.37 |
| ZNF215 | 1.17 |
| GFPT2 | 1.2 |
| GFPT2 | 0.42 |
| GFPT2 | 1.1 |
| GFPT2 | -0.21 |
| GLB1L | -0.12 |
| GLB1L | 0.19 |
| GLB1L | 1.57 |
| GLB1L | 0.24 |
| ROCK1 | -0.49 |
| ROCK1 | -0.53 |
| ROCK1 | -0.44 |
| ROCK1 | -0.47 |
| MICU1 | -0.44 |
| MICU1 | -0.82 |
| MICU1 | -0.22 |
| MICU1 | -0.43 |
| GJB2 | -0.32 |
| GJB2 | 1.2 |
| GJB2 | 0.66 |
| GJB2 | 1.53 |
| SHB | 0.12 |
| SHB | 0 |
| SHB | -0.09 |
| IFNAR1 | -0.83 |
| IFNAR1 | 0.55 |
| IFNAR1 | 0.81 |
| IFNAR1 | 1.02 |
| ZG16 | -0.35 |
| ZG16 | -0.6 |
| ZG16 | 0.08 |
| ZG16 | 0.04 |
| SLC26A5 | -0.32 |
| SLC26A5 | -0.1 |
| SLC26A5 | 0.13 |
| SLC26A5 | -0.11 |
| TMC4 | 1.86 |
| TMC4 | 0.53 |
| TMC4 | 1.55 |
| TMC4 | 1.24 |
| L1CAM-AS1 | -0.36 |
| L1CAM-AS1 | -0.33 |
| L1CAM-AS1 | -0.52 |
| L1CAM-AS1 | -0.74 |
| DYNC1I1 | -0.95 |
| DYNC1I1 | -1.12 |
| DYNC1I1 | -0.82 |
| DYNC1I1 | -0.28 |
| VSIG1 | -0.46 |
| VSIG1 | 0.05 |
| VSIG1 | 0.3 |
| VSIG1 | 0.25 |
| APLP2 | -1.43 |
| APLP2 | -0.67 |
| APLP2 | -0.84 |
| APLP2 | -1.45 |
| RYR3 | 0.59 |
| RYR3 | 1.07 |
| RYR3 | -0.21 |
| RYR3 | 1.03 |
| SH3GL3 | -0.62 |
| SH3GL3 | 0.92 |
| SH3GL3 | 1.17 |
| SH3GL3 | 2.02 |
| DCUN1D4 | -0.1 |
| DCUN1D4 | 0.54 |
| DCUN1D4 | -0.95 |
| DCUN1D4 | -0.29 |
| TRIP13 | -0.13 |
| TRIP13 | -0.27 |
| TRIP13 | -1.03 |
| TRIP13 | -0.81 |
| EVI5L | -0.38 |
| EVI5L | 1.69 |
| EVI5L | -0.25 |
| EVI5L | 1.06 |
| APCS | 1.25 |
| APCS | 3.4 (active) |
| APCS | 1.55 |
| APCS | 3.18 (active) |
| ZNF384 | -1.12 |
| ZNF384 | -1.02 |
| ZNF384 | -1.29 |
| ZNF384 | -1.24 |
| SRPX | -1.22 |
| SRPX | -0.66 |
| SRPX | -0.87 |
| SRPX | 0.09 |
| ANGPTL4 | -1.35 |
| ANGPTL4 | 0.29 |
| ANGPTL4 | 0.12 |
| ANGPTL4 | 1.03 |
| IL33 | 0.01 |
| IL33 | 0.79 |
| IL33 | 0.38 |
| IL33 | 1.37 |
| GOLGA2P5 | 1.57 |
| GOLGA2P5 | 1.07 |
| GOLGA2P5 | 0.97 |
| GOLGA2P5 | 0.52 |

Active calls, of those listed so far:
| target | TNF reporter robust z-score |
| --- | --- |
| APCS | 3.4 (active) |
| APCS | 3.18 (active) |
